These are yes or no findings as the source states them, for the method shown. For some assays here: Binding seen in cells or lysates may run through a third protein. Some binding calls cover weakened binding; strength is not graded here. For some assays here: Tags and fused reporters may be left off the sequences shown.
Tests used:
[1] = target: T1, USL1-Cub (Arabidopsis thaliana) (UniProt Q8S9J3); experiment: two-hybrid; split-ubiquitin yeast two-hybrid; USL1 forms as Cub fusions (MetYCgate), NubG-VPS30 (pPR3-N); yeast strain NMY51; growth on SD-Trp-Leu-His-Ade
T1 sequence: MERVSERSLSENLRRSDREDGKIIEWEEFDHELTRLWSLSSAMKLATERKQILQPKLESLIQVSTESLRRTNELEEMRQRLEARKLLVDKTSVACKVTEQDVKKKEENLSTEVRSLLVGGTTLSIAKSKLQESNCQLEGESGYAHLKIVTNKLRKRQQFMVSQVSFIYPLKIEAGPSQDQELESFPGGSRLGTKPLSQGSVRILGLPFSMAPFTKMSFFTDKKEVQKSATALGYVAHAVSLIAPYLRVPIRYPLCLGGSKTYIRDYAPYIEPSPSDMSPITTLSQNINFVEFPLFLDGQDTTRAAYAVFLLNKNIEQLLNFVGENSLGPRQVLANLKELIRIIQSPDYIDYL

[2] = target: T2, USL1-nLUC (Arabidopsis thaliana) (UniProt Q8S9J3); experiment: split reporter; firefly luciferase complementation imaging; USL1-nLUC and cLUC-VPS30 co-infiltrated into N. benthamiana leaves; low-light cooled CCD imaging
T2 sequence: T1 sequence

B1: NubG-VPS30 (protein, UniProt Q9M367 1-517)
chain: MRKEEIPDKSRTIPIDPNLPKWVCQNCHHSLTIVGVDSYAGKFFNDPPPSATQGSSIHGANSVLGSTRMDNSFVVLPRHKPPQSQGIPPRPRGASSPQPDATQSGKAMEESFVVVYKSEPVSDSGGSHNLSLEVGQNGPLHSNTSGFNATINVLTRAFDIARTQTQVEQPLCLECMRVLSDKLEKEVEDVTRDVEAYEACVQRLEGETQDVLSEADFLKEKKKIEEEERKLVAAIEETEKQNAEVNHQLKELEFKGNRFNELEDRYWQEFNNFQFQLIAHQEERDAILAKIEVSQAHLELLNKTNVLIDAFPIRNDGEFGTINNFRLGRLPAIKVEWDEINAAWGQACLLLHTMCNYFRPKFQCQVKIQPMGSYPRIVDSNNETYELFGPVNLFWSTRYDKAMTLYLMCLKDFADFANSKDQENNIPPDNCLNLPYKIEKDKVLGYSITQSFNKQESWTKALKYTLCNLKWALYWFVGNTNFQPLSATVSLPSNISAAGSLYAKRGPDSSKPSCKKT
[1]
  binding: binds

B2: cLUC-AtVPS30 (protein, UniProt Q9M367 1-517)
chain: B1 chain
[2]
  binding: binds
